Measured values as given in article PMC4441479.

By UniProt entry, the sequences of proteins in these tests, tags left out.
UniProt Q7Z2W4: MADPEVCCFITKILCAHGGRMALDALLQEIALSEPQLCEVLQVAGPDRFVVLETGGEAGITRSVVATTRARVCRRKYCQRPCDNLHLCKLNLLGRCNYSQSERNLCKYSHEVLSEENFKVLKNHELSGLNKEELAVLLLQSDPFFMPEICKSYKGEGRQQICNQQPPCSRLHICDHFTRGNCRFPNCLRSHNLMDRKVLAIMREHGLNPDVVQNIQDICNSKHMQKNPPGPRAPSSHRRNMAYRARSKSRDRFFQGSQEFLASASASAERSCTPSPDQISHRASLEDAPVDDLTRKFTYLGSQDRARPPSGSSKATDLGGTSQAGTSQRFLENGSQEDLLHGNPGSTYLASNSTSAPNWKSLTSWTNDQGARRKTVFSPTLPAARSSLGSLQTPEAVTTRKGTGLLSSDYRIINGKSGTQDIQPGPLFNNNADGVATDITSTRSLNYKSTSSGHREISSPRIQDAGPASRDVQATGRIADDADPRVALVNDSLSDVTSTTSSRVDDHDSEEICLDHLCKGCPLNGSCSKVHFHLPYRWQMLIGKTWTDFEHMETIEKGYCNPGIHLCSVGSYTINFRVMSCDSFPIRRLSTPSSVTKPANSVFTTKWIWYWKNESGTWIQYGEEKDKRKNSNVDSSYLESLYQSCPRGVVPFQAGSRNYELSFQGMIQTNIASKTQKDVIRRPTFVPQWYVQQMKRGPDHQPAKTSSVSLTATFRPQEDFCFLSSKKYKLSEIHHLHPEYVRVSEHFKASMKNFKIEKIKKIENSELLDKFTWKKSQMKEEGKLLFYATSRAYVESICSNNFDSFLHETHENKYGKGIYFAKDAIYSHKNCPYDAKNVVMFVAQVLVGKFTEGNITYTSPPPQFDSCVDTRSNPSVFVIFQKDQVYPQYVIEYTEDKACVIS

B1: DEAH (Asp-Glu-Ala-Asp/His) box polypeptide 57 (protein, UniProt Q6P158-1 1-1386)
chain: MSSSVRRKGKPGKGGGKGSSRGGRGGRSHASKSHGSGGGGGGGGGGGGGNRKASSRIWDDGDDFCIFSESRRPSRPSNSNISKGESRPKWKPKAKVPLQTLHMTSENQEKVKALLRDLQEQDADAGSERGLSGEEEDDEPDCCNDERYWPAGQEPSLVPDLDPLEYAGLASVEPYVPEFTVSPFAVQKLSRYGFNTERCQAVLRMCDGDVGASLEHLLTQCFSETFGERMKISEAVNQISLDECMEQRQEEAFALKSICGEKFIERIQNRVWTIGLELEYLTSRFRKSKPKESTKNVQENSLEICKFYLKGNCKFGSKCRFKHEVPPNQIVGRIERSVDDSHLNAIEDASFLYELEIRFSKDHKYPYQAPLVAFYSTNENLPLACRLHISEFLYDKALTFAETSEPVVYSLITLLEEESEIVKLLTNTHHKYSDPPVNFLPVPSRTRINNPACHKTVIPNNSFVSNQIPEVEKASESEESDEDDGPAPVIVENESYVNLKKKISKRYDWQAKSVHAENGKICKQFRMKQASRQFQSILQERQSLPAWEERETILNLLRKHQVVVISGMTGCGKTTQIPQFILDDSLNGPPEKVANIICTQPRRISAISVAERVAKERAERVGLTVGYQIRLESVKSSATRLLYCTTGVLLRRLEGDTALQGVSHIIVDEVHERTEESDFLLLVLKDIVSQRPGLQVILMSATLNAELFSDYFNSCPVITIPGRTFPVDQFFLEDAIAVTRYVLQDGSPYMRSMKQISKEKLKARRNRTAFEEVEEDLRLSLHLQDQDSVKDAVPDQQLDFKQLLARYKGVSKSVIKTMSIMDFEKVNLELIEALLEWIVDGKHSYPPGAILVFLPGLAEIKMLYEQLQSNSLFNNRRSNRCVIHPLHSSLSSEEQQAVFVKPPAGVTKIIISTNIAETSITIDDVVYVIDSGKMKEKRYDASKGMESLEDTFVSQANALQRKGRAGRVASGVCFHLFTSHHYNHQLLKQQLPEIQRVPLEQLCLRIKILEMFSAHNLQSVFSRLIEPPHTDSLRASKIRLRDLGALTPDERLTPLGYHLASLPVDVRIGKLMLFGSIFRCLDPALTIAASLAFKSPFVSPWDKKEEANQKKLEFAFANSDYLALLQAYKGWQLSTKEGVRASYNYCRQNFLSGRVLQEMASLKRQFTELLSDIGFAREGLRAREIEKRAQGGDGVLDATGEEANSNAENPKLISAMLCAALYPNVVQVKSPEGKFQKTSTGAVRMQPKSAELKFVTKNDGYVHIHPSSVNYQVRHFDSPYLLYHEKIKTSRVFIRDCSMVSVYPLVLFGGGQVNVQLQRGEFVVSLDDGWIRFVAASHQVAELVKELRCELDQLLQDKIKNPSIDLCTCPRGSRIISTIVKLVTTQ
B2: Chaperonin containing TCP1, subunit 2 (beta) (protein, UniProt P78371-2 1-488)
chain: MDKILLSSGRDASLMVTNDGATILKNIGVDNPAAKVLVDMSRVQDDEVGDGTTSVTVLAAELLREAESLIAKKIHPQTIIAGWREATKAAREALLSSAVDHGSDEVKFRQDLMNIAGTTLSSKLLTHHKDHFTKLAVEAVLRLKGSGNLEAIHIIKKLGGSLADSYLDEGFLLDKKIGVNQPKRIENAKILIANTGMDTDKIKIFGSRVRVDSTAKVAEIEHAEKEKMKEKVERILKHGINCFINRQLIYNYPEQLFGAAGVMAIEHADFAGVERLALVTGGEIASTFDHPELVKLGSCKLIEEVMIGEDKLIHFSGVALGEACTIVLRGATQQILDEAERSLHDALCVLAQTVKDSRTVYGGGCSEMLMAHAVTQLANRTPGKEAVAMESYAKALRMLPTIIADNAGYDSADLVAQLRAAHSEGNTTAGLDMREGTIGDMAILGITESFQVKRQVLLSAAEAAEVILRVDNIIKAAPRKRVPDHHPC
B3: Chaperonin containing TCP1, subunit 3 (gamma) (protein, UniProt P49368-1 1-545)
chain: MMGHRPVLVLSQNTKRESGRKVQSGNINAAKTIADIIRTCLGPKSMMKMLLDPMGGIVMTNDGNAILREIQVQHPAAKSMIEISRTQDEEVGDGTTSVIILAGEMLSVAEHFLEQQMHPTVVISAYRKALDDMISTLKKISIPVDISDSDMMLNIINSSITTKAISRWSSLACNIALDAVKMVQFEENGRKEIDIKKYARVEKIPGGIIEDSCVLRGVMINKDVTHPRMRRYIKNPRIVLLDSSLEYKKGESQTDIEITREEDFTRILQMEEEYIQQLCEDIIQLKPDVVITEKGISDLAQHYLMRANITAIRRVRKTDNNRIARACGARIVSRPEELREDDVGTGAGLLEIKKIGDEYFTFITDCKDPKACTILLRGASKEILSEVERNLQDAMQVCRNVLLDPQLVPGGGASEMAVAHALTEKSKAMTGVEQWPYRAVAQALEVIPRTLIQNCGASTIRLLTSLRAKHTQENCETWGVNGETGTLVDMKELGIWEPLAVKLQTYKTAVETAVLLLRIDDIVSGHKKKGDDQSRQGGAPDAGQE
B4: DEAD (Asp-Glu-Ala-Asp) box polypeptide 18 (protein, UniProt Q9NVP1 1-670)
chain: MSHLPMKLLRKKIEKRNLKLRQRNLKFQGASNLTLSETQNGDVSEETMGSRKVKKSKQKPMNVGLSETQNGGMSQEAVGNIKVTKSPQKSTVLTNGEAAMQSSNSESKKKKKKKRKMVNDAEPDTKKAKTENKGKSEEESAETTKETENNVEKPDNDEDESEVPSLPLGLTGAFEDTSFASLCNLVNENTLKAIKEMGFTNMTEIQHKSIRPLLEGRDLLAAAKTGSGKTLAFLIPAVELIVKLRFMPRNGTGVLILSPTRELAMQTFGVLKELMTHHVHTYGLIMGGSNRSAEAQKLGNGINIIVATPGRLLDHMQNTPGFMYKNLQCLVIDEADRILDVGFEEELKQIIKLLPTRRQTMLFSATQTRKVEDLARISLKKEPLYVGVDDDKANATVDGLEQGYVVCPSEKRFLLLFTFLKKNRKKKLMVFFSSCMSVKYHYELLNYIDLPVLAIHGKQKQNKRTTTFFQFCNADSGTLLCTDVAARGLDIPEVDWIVQYDPPDDPKEYIHRVGRTARGLNGRGHALLILRPEELGFLRYLKQSKVPLSEFDFSWSKISDIQSQLEKLIEKNYFLHKSAQEAYKSYIRAYDSHSLKQIFNVNNLNLPQVALSFGFKVPPFVDLNVNSNEGKQKKRGGGGGFGYQKTKKVEKSKIFKHISKKSSDSRQFSH
B5: Chaperonin containing TCP1, subunit 4 (delta) (protein, UniProt P50991-1 1-539)
chain: MPENVAPRSGATAGAAGGRGKGAYQDRDKPAQIRFSNISAAKAVADAIRTSLGPKGMDKMIQDGKGDVTITNDGATILKQMQVLHPAARMLVELSKAQDIEAGDGTTSVVIIAGSLLDSCTKLLQKGIHPTIISESFQKALEKGIEILTDMSRPVELSDRETLLNSATTSLNSKVVSQYSSLLSPMSVNAVMKVIDPATATSVDLRDIKIVKKLGGTIDDCELVEGLVLTQKVSNSGITRVEKAKIGLIQFCLSAPKTDMDNQIVVSDYAQMDRVLREERAYILNLVKQIKKTGCNVLLIQKSILRDALSDLALHFLNKMKIMVIKDIEREDIEFICKTIGTKPVAHIDQFTADMLGSAELAEEVNLNGSGKLLKITGCASPGKTVTIVVRGSNKLVIEEAERSIHDALCVIRCLVKKRALIAGGGAPEIELALRLTEYSRTLSGMESYCVRAFADAMEVIPSTLAENAGLNPISTVTELRNRHAQGEKTAGINVRKGGISNILEELVVQPLLVSVSALTLATETVRSILKIDDVVNTR
B6: Moloney leukemia virus 10, homolog (mouse) (protein, UniProt Q9HCE1-1 1-1003)
chain: MPSKFSCRQLREAGQCFESFLVVRGLDMETDRERLRTIYNRDFKISFGTPAPGFSSMLYGMKIANLAYVTKTRVRFFRLDRWADVRFPEKRRMKLGSDISKHHKSLLAKIFYDRAEYLHGKHGVDVEVQGPHEARDGQLLIRLDLNRKEVLTLRLRNGGTQSVTLTHLFPLCRTPQFAFYNEDQELPCPLGPGECYELHVHCKTSFVGYFPATVLWELLGPGESGSEGAGTFYIARFLAAVAHSPLAAQLKPMTPFKRTRITGNPVVTNRIEEGERPDRAKGYDLELSMALGTYYPPPRLRQLLPMLLQGTSIFTAPKEIAEIKAQLETALKWRNYEVKLRLLLHLEELQMEHDIRHYDLESVPMTWDPVDQNPRLLTLEVPGVTESRPSVLRGDHLFALLSSETHQEDPITYKGFVHKVELDRVKLSFSMSLLSRFVDGLTFKVNFTFNRQPLRVQHRALELTGRWLLWPMLFPVAPRDVPLLPSDVKLKLYDRSLESNPEQLQAMRHIVTGTTRPAPYIIFGPPGTGKTVTLVEAIKQVVKHLPKAHILACAPSNSGADLLCQRLRVHLPSSIYRLLAPSRDIRMVPEDIKPCCNWDAKKGEYVFPAKKKLQEYRVLITTLITAGRLVSAQFPIDHFTHIFIDEAGHCMEPESLVAIAGLMEVKETGDPGGQLVLAGDPRQLGPVLRSPLTQKHGLGYSLLERLLTYNSLYKKGPDGYDPQFITKLLRNYRSHPTILDIPNQLYYEGELQACADVVDRERFCRWAGLPRQGFPIIFHGVMGKDEREGNSPSFFNPEEAATVTSYLKLLLAPSSKKGKARLSPRSVGVISPYRKQVEKIRYCITKLDRELRGLDDIKDLKVGSVEEFQGQERSVILISTVRSSQSFVQLDLDFNLGFLKNPKRFNVAVTRAKALLIIVGNPLLLGHDPDWKVFLEFCKENGGYTGCPFPAKLDLQQGQNLLQGLSKLSPSTSGPHSHDYLPQEREGEGGLSLQVEPEWRNEL
B7: DEAH (Asp-Glu-Ala-His) box polypeptide 30 (protein, UniProt Q7L2E3-3 1-1155)
chain: MAASRDLLKEFPQPKNLLNSVIGRALGISHAKDKLVYVHTNGPKKKKVTLHIKWPKSVEVEGYGSKKIDAERQAAAAACQLFKGWGLLGPRNELFDAAKYRVLADRFGSPADSWWRPEPTMPPTSWRQLNPESIRPGGPGGLSRSLGREEEEDEEEELEEGTIDVTDFLSMTQQDSHAPLRDSRGSSFEMTDDDSAIRALTQFPLPKNLLAKVIQIATSSSTAKNLMQFHTVGTKTKLSTLTLLWPCPMTFVAKGRRKAEAENKAAALACKKLKSLGLVDRNNEPLTHAMYNLASLRELGETQRRPCTIQVPEPILRKIETFLNHYPVESSWIAPELRLQSDDILPLGKDSGPLSDPITGKPYVPLLEAEEVRLSQSLLELWRRRGPVWQEAPQLPVDPHRDTILNAIEQHPVVVISGDTGCGKTTRIPQLLLERYVTEGRGARCNVIITQPRRISAVSVAQRVSHELGPSLRRNVGFQVRLESKPPSRGGALLFCTVGILLRKLQSNPSLEGVSHVIVDEVHERDVNTDFLLILLKGLQRLNPALRLVLMSATGDNERFSRYFGGCPVIKVPGFMYPVKEHYLEDILAKLGKHQYLHRHRHHESEDECALDLDLVTDLVLHIDARGEPGGILCFLPGWQEIKGVQQRLQEALGMHESKYLILPVHSNIPMMDQKAIFQQPPVGVRKIVLATNIAETSITINDIVHVVDSGLHKEERYDLKTKVSCLETVWVSRANVIQRRGRAGRCQSGFAYHLFPRSRLEKMVPFQVPEILRTPLENLVLQAKIHMPEKTAVEFLSKAVDSPNIKAVDEAVILLQEIGVLDQREYLTTLGQRLAHISTDPRLAKAIVLAAIFRCLHPLLVVVSCLTRDPFSSSLQNRAEVDKVKALLSHDSGSDHLAFVRAVAGWEEVLRWQDRSSRENYLEENLLYAPSLRFIHGLIKQFSENIYEAFLVGKPSDCTLASAQCNEYSEEEELVKGVLMAGLYPNLIQVRQGKVTRQGKFKPNSVTYRTKSGNILLHKSTINREATRLRSRWLTYFMAVKSNGSVFVRDSSQVHPLAVLLLTDGDVHIRDDGRRATISLSDSDLLRLEGDSRTVRLLKELRRALGRMVERSLRSELAALPPSVQEEHGQLLALLAELLRGPCGSFDVRKTADD

Target: ZAP-L-FL (FLAG-tagged ZAP-L) (human) (UniProt Q7Z2W4)
Assay: affinity purification with mass spectrometry; ZAP-L-FL or empty vector transfected in 293T; IP with α-FLAG agarose from whole cell lysates (sonication) in the presence or absence of 30 μg/ml RNase; tandem MS; hits: 3 or more peptides, two replicate IPs, not in vector control

Q: Which binding does the source give for B1 here?
A: The binding was “binds”.

Q: With B2 as the binder, how does the binding read?
A: The binding was “binds”.

Q: How did the binding turn out when B3 was run?
A: The binding was “binds”.

Q: With B4 as the binder, how does the binding read?
A: Its binding is “binds”.

Q: With B5 as the binder, how does the binding read?
A: The binding was “binds”.

Q: B6 was tested. Which binding did it give?
A: The binding was “binds”.

Q: B7 was tested. Which binding did it give?
A: Its binding is “binds”.

No constants are given. Whether binding was seen depends on the method and setting. In cells and extracts the contact can be indirect. A yes stands for co-enrichment or nearness to the bait. Other partners may have been found. Sequences can lack the tags named with a protein.
